Among the data in publication PMC2225408 are binding values, retold here.

Amino acid sequences for entries named in this document (tags omitted).
UniProt Q15691: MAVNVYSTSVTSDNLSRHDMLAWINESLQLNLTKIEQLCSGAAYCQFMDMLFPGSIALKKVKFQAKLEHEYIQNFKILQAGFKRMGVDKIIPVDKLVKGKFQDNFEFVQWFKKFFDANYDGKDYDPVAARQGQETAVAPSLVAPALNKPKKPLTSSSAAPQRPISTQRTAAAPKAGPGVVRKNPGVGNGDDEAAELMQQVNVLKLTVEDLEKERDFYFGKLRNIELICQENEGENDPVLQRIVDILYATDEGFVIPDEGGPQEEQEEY
UniProt Q99627: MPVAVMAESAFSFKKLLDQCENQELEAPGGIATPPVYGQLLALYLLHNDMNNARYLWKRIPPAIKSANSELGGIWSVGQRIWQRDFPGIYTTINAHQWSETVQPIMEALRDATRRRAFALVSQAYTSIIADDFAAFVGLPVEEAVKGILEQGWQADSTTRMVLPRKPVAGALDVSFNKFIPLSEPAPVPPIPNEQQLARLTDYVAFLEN
UniProt Q92905: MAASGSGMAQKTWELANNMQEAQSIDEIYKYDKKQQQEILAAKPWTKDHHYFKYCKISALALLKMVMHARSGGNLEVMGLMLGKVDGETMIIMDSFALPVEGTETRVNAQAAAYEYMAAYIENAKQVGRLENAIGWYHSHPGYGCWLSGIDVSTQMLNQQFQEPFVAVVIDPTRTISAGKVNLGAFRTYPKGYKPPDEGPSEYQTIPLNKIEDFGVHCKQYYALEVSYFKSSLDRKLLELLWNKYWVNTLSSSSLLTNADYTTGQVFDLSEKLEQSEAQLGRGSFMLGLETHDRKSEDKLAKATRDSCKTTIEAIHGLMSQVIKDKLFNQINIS

These are yes or no findings as the source states them, for the method shown. For part of these data: Binding seen in cells or lysates may run through a third protein. Some binding calls cover weakened binding; strength is not graded here.

Assay [1] deals with recombinant GST-EB1 (microtubule-end-binding protein 1) (UniProt Q15691). Kind of assay: pull-down; GST pull-down; purified CSN, recombinant GST-EB1 and increasing amounts of recombinant His-CSN5 incubated for 30 min at 37°C; precipitates probed by anti-EB1 and anti-CSN3 antibodies; both purified.
The target of assay [2] is CSN8, endogenous in HeLa cells (human (endogenous in HeLa)) (UniProt Q99627). The assay is described as follows: co-sedimentation; glycerol gradient centrifugation of lysates from siGFP and siCSN5 HeLa cells; fractions 1 to 19 probed with anti-CSN5 and anti-CSN8.
The target is the same in assay [3]. The assay is described as follows: native gel or EMSA; non-denaturing gel electrophoresis (Phast-gel system) of lysates from siGFP and siCSN5 HeLa cells; same blot probed with anti-CSN5 and anti-CSN8.

As to “recombinant His-CSN5 (from UniProt Q92905 1-334)”, the binding result in assay [1] is given as “binds”. For the substance “CSN5, endogenous in HeLa cells (from UniProt Q92905 1-334)”, the binding entry in assay [2] and in assay [3] was “binds” each time.
